Measured values as given in paper PMC12677500.

By UniProt entry, the sequences of proteins in these tests, tags left out.
UniProt Q9UNE7: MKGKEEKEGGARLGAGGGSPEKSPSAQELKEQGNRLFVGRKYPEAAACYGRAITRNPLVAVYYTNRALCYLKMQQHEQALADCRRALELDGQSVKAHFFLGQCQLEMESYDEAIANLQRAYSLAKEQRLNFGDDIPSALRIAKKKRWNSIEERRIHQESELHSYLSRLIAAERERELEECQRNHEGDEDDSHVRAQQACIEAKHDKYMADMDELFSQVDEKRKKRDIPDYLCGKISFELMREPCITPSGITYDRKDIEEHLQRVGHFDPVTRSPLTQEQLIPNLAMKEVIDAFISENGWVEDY

Molecular target: T1, ARCN1-Myc (archain 1, δ subunit of coat protein complex I) (human) (UniProt P48444)
T1 sequence: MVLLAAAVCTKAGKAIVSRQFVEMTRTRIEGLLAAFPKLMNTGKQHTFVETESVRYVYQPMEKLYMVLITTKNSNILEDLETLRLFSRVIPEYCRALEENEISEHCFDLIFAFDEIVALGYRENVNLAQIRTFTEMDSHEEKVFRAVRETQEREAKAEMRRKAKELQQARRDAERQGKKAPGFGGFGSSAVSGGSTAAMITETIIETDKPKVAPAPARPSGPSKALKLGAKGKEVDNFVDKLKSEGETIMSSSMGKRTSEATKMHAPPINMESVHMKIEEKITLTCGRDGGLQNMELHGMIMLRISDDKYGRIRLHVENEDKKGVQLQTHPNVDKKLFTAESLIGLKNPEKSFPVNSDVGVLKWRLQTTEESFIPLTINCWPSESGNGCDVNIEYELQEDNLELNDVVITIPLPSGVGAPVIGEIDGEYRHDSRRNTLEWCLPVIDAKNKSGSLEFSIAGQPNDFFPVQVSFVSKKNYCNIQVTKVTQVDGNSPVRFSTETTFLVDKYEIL
Test: affinity purification with mass spectrometry; Myc-tagged ARCN1 immunoprecipitated from transfected HEK293T cells (MG132 10 μM for 12 h) and analysed by mass spectrometry for endogenous E3 ubiquitin ligases

For “endogenous STUB1 of HEK293T cells (from UniProt Q9UNE7 1-303)”, the binding was “binds”.

No constants are given. Whether binding was seen depends on the method and setting. Binding seen in cells or lysates may run through a third protein. A yes stands for co-enrichment or nearness to the bait. Other partners may have been found. Where a sequence is shown, tags or fusion partners need not be part of it.
